2 molecules from doi:10.1101/2020.05.20.107664 can be followed below.

The assay addresses FLAG-STING, in reconstituted Sting-/- MEFs (mouse). As to the kind of experiment: affinity purification with mass spectrometry.

These are yes or no findings as the source states them, for the method shown. In cells and extracts the contact can be indirect. These calls come from enrichment with a bait or labelling near it, and not all partners need be listed.

B1: Ablim1 (protein, UniProt Q8K4G5 1-861)
chain: MPSLLGLKCLGKLCSSEIGKVPSPERASLRNSHRRLLIEDLSVPETPDPAHRRRGTVIHLVYLYSAGCGPPELRFSSYDPSVAHPQDPHHSSEKPVIHCHKCGEPCKGEVLRVQTKHFHIKCFTCKVCGCDLAQGGFFIKNGDYLCTLDYQRMYGTRCHGCGEFVEGEVVTALGKTYHPNCFACTICKRPFPPGDRVTFNGRDCLCQLCAQPMSSSPKEASCSSNCAGCGRDIKNGQALLALDKQWHLGCFKCKSCGKVLTGEYISKDGSPYCEKDYQGLFGVKCEACHQFITGKVLEAGDKHYHPSCARCSRCNQMFTEGEEMYLQGSTVWHPDCKQSTKTEEKLRPPNIPRSSSDFFYPKSLIRRTGRSPALQLLSPPCLTNSNKNPRQPTRTSSESIYSRPGSSIPGSPGHTIYAKVDNEILDYKDLAAIPKVKAIYDIERPDLITYEPFYTSGYEDKQERQSLGESPRTLSPTPSAEGYQDVRDRMIHRSTSQGSINSPVYSRHSYTPTTSRSPQHFHRPELLSPGVHRWSPLRTSSFSSTHSDSRPNPPFRHHFLPHVKGNEPSSGRNSPLPYRPDSRPLTPTYAQAPKHFHVPDQGINIYRKPPIYKQHAALAAQSKASEDIIKFSKFPAAQAPDPNEIPKIETDHWPGPPSLAAVGTDPRRRSSGREEDEEELLRRRQLQEEQLMKLNSGLGQLILKEEMEKESRERASLASRYDSPLHSASHAPSSKTSSLPGYGKNGLHRPVSTDFAQYNSYGDISGGVRDYQTLPDGHMPAVRMDRGVSMPNMLEPKIFPYEMLMVTNRGRNKILRDVDRTRLERHLAPEVFWEIFGMSIQEFDKLPLWRRNDMKKKAKLF
Take B1: the binding entry was “binds”.

B2: Clptm1l (protein, UniProt Q8BXA5 1-539)
chain: MWSGRSSFTSLVVGVFLVYVVHTCWVMYGIVYTRPCSGDSNCIQPYLALRPKLQLSVYTTTRSSLGAENNVDLILNVEDFDVDSKFERTVNVSVPKKTRNNGTLYAYIFLHHAGILPWQDGKQVHVVSTLTTYMIPKPEEINLLTGESATQQQIEAEKKPSNALDEPVSHWRPRLTLNVMVDDFVFDGSSLPADVHRYMKMIQLGKTVHYLPILFIDQLSNRVKDLMVINRSTTELPLTVSYDKISLGRLRFWIHMQDAVYSLQQFGFSEKDADELKGIFVDTNLYLLALTFFVAAFHLLFDFLAFKSDISFWKKKKSMIGMSTKAVLWRCFSTVVIFLFLLDEQTSLLVLIPAGVGAAIELWKVKKALKITVAWRGLRPVFQFGTHSESERKTEKYDAQAMKYLSYLLYPLCVGGAVYSLLNIKYKSWYSWLINSFVNGVYAFGFLFMLPQLFVNYKMKSVAHLPWKAFTYKAFNTFIDDVFAFIITMPTSHRLACFRDDVVFLVYLYQRWLYPVDKSRVNEFGESYEEQPKRKPHPD
Regarding B2, the binding result is given as “binds”.
